Values quoted from earlier work in patent US8349899B1 (Arrowhead Center, Inc., priority 2008, dated 2013).
At least one structure is not confirmed: it was looked up by name or label, or the drawing left a doubt.

Key:
[1] = tested on: SN12C; conditions: Renal SN12C; data previously determined; cited from earlier work
[2] = tested on: SNB-75; conditions: Central Nervous System SNB-75; data previously determined; cited from earlier work
[3] = tested on: UACC-62; conditions: Melanoma UACC-62; data previously determined; cited from earlier work
[4] = tested on: HCT-15; conditions: Colon HCT-15; data previously determined; cited from earlier work
[5] = tested on: SK-MEL-5; conditions: Melanoma SK-MEL-5; data previously determined; cited from earlier work
[6] = tested on: HCC-2998; conditions: Colon HCC-2998; data previously determined; cited from earlier work
[7] = tested on: SW-620; conditions: Colon SW-620; data previously determined; cited from earlier work

Measured: GI50

CCOC(=O)C1=C(C)NC(=S)NC1c1cccc(O)c1 (stereo not shown) [Monastrol]
39.8 µM: all assays above
